Laboratory results published in publication PMC8115264, “Mitofusin-2 stabilizes adherens junctions and suppresses endothelial inflammation via modulation of β-catenin signaling” (Nature Communications, 2021).
These are yes or no findings as the source states them, for the method shown. Binding seen in cells or lysates may run through a third protein. A yes stands for co-enrichment or nearness to the bait. Other partners may have been found. Sequences can lack the tags named with a protein. One block for each molecule: values may come before it.

By UniProt entry, the sequences of proteins in these tests, tags left out.
UniProt P06733: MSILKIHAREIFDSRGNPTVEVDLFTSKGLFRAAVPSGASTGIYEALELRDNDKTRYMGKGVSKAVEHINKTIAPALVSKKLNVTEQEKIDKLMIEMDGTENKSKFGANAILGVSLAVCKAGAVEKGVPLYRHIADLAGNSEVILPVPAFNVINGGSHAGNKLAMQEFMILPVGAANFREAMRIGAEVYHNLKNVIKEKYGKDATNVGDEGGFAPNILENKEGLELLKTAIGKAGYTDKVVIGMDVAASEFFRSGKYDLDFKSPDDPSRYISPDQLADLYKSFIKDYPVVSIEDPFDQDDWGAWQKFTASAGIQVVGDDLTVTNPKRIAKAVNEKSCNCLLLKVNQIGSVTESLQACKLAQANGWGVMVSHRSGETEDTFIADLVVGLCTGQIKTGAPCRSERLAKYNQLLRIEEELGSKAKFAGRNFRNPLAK

Molecular target: T1, GFP-Mfn2 (UniProt O95140 1-757)
T1 construct: The construct was generated in the authors' laboratory; also called lentiviral GFP-Mfn2; GFP-tagged Mfn2; source: HLMVECs, lentiviral expression (pWPXL), in lysate
T1 sequence (looked up): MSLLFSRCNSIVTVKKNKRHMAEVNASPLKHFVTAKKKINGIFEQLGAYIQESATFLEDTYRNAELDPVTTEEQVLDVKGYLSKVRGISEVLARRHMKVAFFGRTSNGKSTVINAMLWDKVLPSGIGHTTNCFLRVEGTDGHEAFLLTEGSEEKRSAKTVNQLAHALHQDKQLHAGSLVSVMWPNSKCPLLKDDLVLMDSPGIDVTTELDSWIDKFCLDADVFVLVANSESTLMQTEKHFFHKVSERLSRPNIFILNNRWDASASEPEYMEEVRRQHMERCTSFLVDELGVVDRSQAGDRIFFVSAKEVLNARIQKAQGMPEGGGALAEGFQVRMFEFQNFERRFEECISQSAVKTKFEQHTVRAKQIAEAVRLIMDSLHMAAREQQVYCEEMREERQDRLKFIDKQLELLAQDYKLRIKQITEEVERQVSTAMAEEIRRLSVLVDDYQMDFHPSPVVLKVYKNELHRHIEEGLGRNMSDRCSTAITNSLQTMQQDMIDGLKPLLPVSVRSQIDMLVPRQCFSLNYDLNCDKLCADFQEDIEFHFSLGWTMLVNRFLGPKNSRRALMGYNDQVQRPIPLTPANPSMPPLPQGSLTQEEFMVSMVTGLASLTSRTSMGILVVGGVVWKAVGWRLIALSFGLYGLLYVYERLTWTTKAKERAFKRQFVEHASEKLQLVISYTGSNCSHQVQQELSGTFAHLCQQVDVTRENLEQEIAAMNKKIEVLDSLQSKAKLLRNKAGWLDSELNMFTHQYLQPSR
Experiment: affinity purification with mass spectrometry; GFP-Mfn2 from HLMVEC lysate immunoprecipitated with GFP-trap magnetic agarose; LC-MS/MS; lentiviral GFP as control; hits found in at least two of three experiments with >1.5-fold increase

binding: binds
Molecule: ENO1 (from UniProt P06733 1-434)

binding: binds
Molecule: MACF1 (Microtubule Actin Crosslinking Factor 1) (from UniProt Q9UPN3 1-7388)

binding: binds
B1: KRT18 (protein, UniProt P05783 1-430)
chain: MSFTTRSTFSTNYRSLGSVQAPSYGARPVSSAASVYAGAGGSGSRISVSRSTSFRGGMGSGGLATGIAGGLAGMGGIQNEKETMQSLNDRLASYLDRVRSLETENRRLESKIREHLEKKGPQVRDWSHYFKIIEDLRAQIFANTVDNARIVLQIDNARLAADDFRVKYETELAMRQSVENDIHGLRKVIDDTNITRLQLETEIEALKEELLFMKKNHEEEVKGLQAQIASSGLTVEVDAPKSQDLAKIMADIRAQYDELARKNREELDKYWSQQIEESTTVVTTQSAEVGAAETTLTELRRTVQSLEIDLDSMRNLKASLENSLREVEARYALQMEQLNGILLHLESELAQTRAEGQRQAQEYEALLNIKVKLEAEIATYRRLLEDGEDFNLGDALDSSNSMQTIQKTTTRRIVDGKVVSETNDTKVLRH
